Reference: the supplement of paper PMC12819154, “High-throughput peptide-centric local stability assay extends protein–ligand identification to membrane proteins, tissues and bacteria” (Nature Structural & Molecular Biology, 2025)
The list shows a part of the results. Most entries show no effect beyond the scatter of the controls.

Chains of the proteins cited; added tags and fusions are not shown. Lines headed by an entry give the natural chain unless they say otherwise; changes in a name come on top.
UniProt O60675: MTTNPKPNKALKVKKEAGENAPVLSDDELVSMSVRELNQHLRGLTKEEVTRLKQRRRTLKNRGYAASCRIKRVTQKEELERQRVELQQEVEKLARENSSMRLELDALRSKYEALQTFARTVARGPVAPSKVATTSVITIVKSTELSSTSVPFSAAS
UniProt O75223: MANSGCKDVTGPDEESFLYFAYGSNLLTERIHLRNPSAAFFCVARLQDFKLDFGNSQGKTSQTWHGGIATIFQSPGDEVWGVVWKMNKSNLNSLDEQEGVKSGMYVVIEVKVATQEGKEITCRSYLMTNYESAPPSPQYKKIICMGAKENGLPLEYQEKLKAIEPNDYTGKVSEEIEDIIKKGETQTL
UniProt O75414: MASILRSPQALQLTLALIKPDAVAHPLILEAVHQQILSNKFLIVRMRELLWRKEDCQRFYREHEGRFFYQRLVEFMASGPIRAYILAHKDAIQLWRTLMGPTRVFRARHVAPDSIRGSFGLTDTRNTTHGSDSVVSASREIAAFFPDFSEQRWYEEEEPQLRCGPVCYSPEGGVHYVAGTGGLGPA
UniProt O60641: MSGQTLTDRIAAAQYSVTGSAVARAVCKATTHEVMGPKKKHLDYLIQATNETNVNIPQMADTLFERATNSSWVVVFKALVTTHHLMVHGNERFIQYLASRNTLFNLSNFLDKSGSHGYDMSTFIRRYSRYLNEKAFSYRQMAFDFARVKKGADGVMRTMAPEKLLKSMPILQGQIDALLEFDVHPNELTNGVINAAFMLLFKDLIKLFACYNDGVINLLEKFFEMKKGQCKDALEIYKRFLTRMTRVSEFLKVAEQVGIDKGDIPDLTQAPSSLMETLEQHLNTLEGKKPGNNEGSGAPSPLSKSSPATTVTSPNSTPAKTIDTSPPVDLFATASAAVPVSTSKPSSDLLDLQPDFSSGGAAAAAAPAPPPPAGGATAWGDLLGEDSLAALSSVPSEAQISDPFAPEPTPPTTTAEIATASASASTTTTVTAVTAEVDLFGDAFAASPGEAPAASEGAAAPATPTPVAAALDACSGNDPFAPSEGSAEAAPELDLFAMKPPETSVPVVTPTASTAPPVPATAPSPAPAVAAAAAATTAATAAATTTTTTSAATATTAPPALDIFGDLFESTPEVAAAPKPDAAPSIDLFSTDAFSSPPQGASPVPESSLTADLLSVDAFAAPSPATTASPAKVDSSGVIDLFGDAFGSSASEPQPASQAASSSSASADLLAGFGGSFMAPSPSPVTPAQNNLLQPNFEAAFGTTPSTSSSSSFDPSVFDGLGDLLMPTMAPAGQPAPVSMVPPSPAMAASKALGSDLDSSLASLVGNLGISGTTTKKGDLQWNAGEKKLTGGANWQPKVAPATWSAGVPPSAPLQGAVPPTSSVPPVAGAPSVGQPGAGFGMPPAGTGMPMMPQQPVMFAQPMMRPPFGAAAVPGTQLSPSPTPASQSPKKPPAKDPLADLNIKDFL
UniProt O43598: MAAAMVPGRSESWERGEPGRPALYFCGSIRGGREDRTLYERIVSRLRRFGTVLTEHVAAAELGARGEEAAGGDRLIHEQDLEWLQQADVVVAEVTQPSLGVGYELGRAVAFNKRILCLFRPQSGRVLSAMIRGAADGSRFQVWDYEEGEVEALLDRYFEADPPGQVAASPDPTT
UniProt O75386: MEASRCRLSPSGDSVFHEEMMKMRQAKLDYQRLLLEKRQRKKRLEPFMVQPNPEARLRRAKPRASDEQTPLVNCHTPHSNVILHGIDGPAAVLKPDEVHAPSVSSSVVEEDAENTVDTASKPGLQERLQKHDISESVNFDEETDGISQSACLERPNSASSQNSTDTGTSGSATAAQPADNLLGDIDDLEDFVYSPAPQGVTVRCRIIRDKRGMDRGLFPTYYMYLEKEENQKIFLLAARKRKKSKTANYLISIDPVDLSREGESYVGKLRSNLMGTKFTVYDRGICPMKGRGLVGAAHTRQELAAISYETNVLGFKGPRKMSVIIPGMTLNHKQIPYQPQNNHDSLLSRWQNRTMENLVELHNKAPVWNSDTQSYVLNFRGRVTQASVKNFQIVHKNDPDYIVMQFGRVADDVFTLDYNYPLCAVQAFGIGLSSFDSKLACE
UniProt O75380, whole entry: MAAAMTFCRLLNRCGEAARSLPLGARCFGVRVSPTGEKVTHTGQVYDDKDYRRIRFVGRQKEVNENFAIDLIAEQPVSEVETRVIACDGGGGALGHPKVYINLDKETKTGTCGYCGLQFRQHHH
UniProt O75387: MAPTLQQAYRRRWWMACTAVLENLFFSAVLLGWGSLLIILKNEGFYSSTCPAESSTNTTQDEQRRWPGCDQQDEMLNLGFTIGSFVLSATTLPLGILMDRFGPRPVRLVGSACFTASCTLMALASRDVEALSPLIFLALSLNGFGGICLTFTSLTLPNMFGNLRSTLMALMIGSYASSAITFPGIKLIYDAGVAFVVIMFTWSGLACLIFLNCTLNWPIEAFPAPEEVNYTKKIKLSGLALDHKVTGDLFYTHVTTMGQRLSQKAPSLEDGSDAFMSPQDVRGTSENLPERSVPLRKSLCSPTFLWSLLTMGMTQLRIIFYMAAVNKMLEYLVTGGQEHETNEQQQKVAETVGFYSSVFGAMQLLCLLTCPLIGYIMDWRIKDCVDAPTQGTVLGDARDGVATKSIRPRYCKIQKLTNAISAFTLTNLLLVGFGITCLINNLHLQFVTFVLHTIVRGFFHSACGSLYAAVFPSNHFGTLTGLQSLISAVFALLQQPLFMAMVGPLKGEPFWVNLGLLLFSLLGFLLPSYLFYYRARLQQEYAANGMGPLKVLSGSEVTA
UniProt O60518: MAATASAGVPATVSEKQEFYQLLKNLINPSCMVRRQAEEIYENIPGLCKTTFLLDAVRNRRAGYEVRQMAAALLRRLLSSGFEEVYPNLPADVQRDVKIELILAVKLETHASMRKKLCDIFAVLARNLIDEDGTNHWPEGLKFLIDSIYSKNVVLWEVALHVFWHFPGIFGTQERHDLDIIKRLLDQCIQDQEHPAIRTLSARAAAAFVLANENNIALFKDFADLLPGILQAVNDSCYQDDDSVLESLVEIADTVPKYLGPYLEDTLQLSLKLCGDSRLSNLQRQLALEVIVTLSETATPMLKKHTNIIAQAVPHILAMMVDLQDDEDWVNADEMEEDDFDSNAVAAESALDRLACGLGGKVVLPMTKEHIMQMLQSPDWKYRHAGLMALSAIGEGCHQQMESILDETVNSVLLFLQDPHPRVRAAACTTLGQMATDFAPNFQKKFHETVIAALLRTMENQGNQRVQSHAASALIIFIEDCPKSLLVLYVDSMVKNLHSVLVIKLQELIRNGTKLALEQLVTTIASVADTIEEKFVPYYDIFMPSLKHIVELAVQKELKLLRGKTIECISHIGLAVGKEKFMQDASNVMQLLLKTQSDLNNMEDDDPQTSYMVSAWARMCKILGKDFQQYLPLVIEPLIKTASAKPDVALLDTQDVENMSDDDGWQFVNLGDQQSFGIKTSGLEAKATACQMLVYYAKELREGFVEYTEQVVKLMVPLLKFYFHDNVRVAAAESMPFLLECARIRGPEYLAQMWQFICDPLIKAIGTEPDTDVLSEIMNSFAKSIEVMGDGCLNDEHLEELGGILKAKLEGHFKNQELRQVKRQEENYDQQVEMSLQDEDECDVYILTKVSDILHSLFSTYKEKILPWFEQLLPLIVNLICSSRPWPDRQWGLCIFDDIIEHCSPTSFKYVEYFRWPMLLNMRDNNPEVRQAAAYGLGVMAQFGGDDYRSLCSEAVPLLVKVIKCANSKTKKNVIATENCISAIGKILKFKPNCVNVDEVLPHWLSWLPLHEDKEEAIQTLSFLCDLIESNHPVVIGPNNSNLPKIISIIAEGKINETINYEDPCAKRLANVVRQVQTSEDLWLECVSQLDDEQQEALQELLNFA
UniProt O15550, whole entry: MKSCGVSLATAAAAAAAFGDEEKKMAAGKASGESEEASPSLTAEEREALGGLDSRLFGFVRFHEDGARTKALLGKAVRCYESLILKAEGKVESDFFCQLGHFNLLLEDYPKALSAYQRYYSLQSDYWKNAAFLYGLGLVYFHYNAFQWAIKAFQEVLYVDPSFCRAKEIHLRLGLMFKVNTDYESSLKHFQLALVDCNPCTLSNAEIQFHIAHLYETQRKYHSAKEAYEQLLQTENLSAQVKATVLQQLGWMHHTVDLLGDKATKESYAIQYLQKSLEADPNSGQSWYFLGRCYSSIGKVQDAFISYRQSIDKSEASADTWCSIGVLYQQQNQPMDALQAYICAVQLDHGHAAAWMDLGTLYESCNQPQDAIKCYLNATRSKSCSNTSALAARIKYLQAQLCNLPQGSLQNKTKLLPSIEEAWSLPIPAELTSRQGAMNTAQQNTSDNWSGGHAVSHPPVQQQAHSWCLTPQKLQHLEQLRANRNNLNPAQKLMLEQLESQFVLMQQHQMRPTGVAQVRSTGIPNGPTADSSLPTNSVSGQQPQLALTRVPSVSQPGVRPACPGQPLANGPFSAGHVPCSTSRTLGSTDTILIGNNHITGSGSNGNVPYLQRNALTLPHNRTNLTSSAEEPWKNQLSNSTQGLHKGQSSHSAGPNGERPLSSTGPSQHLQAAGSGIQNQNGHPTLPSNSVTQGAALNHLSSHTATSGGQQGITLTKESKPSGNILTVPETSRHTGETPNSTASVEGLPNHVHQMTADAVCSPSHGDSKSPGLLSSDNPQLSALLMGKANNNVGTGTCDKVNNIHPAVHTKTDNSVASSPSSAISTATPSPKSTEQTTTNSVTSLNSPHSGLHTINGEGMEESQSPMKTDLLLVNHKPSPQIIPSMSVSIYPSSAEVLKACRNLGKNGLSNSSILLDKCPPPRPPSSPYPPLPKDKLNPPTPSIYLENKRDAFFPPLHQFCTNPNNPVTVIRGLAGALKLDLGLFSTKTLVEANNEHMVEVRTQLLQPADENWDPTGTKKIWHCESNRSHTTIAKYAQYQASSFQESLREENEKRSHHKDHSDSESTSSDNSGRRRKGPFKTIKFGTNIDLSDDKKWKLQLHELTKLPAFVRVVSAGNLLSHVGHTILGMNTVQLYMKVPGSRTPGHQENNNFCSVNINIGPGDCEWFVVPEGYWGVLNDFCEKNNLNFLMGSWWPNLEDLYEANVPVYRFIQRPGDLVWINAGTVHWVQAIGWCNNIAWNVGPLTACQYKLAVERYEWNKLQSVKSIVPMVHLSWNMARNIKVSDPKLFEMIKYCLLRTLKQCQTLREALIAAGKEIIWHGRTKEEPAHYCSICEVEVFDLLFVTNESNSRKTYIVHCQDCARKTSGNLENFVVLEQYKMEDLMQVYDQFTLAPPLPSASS

These targets were tested with Cc1nc(Nc2ncc(C(=O)Nc3c(C)cccc3Cl)s2)cc(N2CCN(CCO)CC2)n1 [dasatinib] (assay: log2 fold change of tryptic peptide abundance, ligand vs vehicle (limited proteolysis) (log2 ratio); higher = more trypsin-susceptible (destabilized)). Conditions: ligand concentration: 5 uM; sample: K562 cleared lysate.

Row | Target | log2 fold change
1 | MAFK (peptide sequence: GPVAPSK, peptide start residue: 124) (UniProt O60675) | 0.0721
2 | GGCT (peptide sequence: ENGLPLEYQEK, peptide start residue: 149) (UniProt O75223) | -0.147
3 | NME6 (peptide sequence: HVAPDSIR, peptide start residue: 109) (UniProt O75414) | -0.0302
4 | SNAP91 (peptide sequence: FIQYLASR, peptide start residue: 93) (UniProt O60641) | -0.227
5 | UniProt O43598 (peptide sequence: FGTVLTEHVAAAELGAR, peptide start residue: 49) | 0.0906
6 | TULP3 (peptide sequence: LSPSGDSVFHEEMMK, peptide start residue: 8) (UniProt O75386) | 0.204
7 | NDUFS6 (peptide sequence: VTHTGQVYDDKDYR, peptide start residue: 39) (UniProt O75380) | 0.125
8 | SLC43A1 (peptide sequence: VTGDLFYTHVTTMGQR, peptide start residue: 245) (UniProt O75387) | -0.333
9 | RANBP6 (peptide sequence: TIECISHIGLAVGK, peptide start residue: 565) (UniProt O60518) | 0.567
10 | KDM6A (peptide sequence: SHHKDHSDSESTSSDNSGRR, peptide start residue: 1055) (UniProt O15550) | 1.25
